PMC12862363, “AURKB-driven dissolution of CIZ1–RNA assemblies from the inactive X chromosome in mitosis” (Nucleic Acids Research, 2026)
Results are given in words; binding and its absence hold for the method and conditions named. In cells and extracts the contact can be indirect. Here binding means that the protein was enriched with, or labelled near, the bait; the list need not be complete. For some assays here: Sequences can lack the tags named with a protein. Values belong to the molecule of their own block, whether it stands above or below them.

Chains of the proteins cited; added tags and fusions are not shown.
UniProt Q14980: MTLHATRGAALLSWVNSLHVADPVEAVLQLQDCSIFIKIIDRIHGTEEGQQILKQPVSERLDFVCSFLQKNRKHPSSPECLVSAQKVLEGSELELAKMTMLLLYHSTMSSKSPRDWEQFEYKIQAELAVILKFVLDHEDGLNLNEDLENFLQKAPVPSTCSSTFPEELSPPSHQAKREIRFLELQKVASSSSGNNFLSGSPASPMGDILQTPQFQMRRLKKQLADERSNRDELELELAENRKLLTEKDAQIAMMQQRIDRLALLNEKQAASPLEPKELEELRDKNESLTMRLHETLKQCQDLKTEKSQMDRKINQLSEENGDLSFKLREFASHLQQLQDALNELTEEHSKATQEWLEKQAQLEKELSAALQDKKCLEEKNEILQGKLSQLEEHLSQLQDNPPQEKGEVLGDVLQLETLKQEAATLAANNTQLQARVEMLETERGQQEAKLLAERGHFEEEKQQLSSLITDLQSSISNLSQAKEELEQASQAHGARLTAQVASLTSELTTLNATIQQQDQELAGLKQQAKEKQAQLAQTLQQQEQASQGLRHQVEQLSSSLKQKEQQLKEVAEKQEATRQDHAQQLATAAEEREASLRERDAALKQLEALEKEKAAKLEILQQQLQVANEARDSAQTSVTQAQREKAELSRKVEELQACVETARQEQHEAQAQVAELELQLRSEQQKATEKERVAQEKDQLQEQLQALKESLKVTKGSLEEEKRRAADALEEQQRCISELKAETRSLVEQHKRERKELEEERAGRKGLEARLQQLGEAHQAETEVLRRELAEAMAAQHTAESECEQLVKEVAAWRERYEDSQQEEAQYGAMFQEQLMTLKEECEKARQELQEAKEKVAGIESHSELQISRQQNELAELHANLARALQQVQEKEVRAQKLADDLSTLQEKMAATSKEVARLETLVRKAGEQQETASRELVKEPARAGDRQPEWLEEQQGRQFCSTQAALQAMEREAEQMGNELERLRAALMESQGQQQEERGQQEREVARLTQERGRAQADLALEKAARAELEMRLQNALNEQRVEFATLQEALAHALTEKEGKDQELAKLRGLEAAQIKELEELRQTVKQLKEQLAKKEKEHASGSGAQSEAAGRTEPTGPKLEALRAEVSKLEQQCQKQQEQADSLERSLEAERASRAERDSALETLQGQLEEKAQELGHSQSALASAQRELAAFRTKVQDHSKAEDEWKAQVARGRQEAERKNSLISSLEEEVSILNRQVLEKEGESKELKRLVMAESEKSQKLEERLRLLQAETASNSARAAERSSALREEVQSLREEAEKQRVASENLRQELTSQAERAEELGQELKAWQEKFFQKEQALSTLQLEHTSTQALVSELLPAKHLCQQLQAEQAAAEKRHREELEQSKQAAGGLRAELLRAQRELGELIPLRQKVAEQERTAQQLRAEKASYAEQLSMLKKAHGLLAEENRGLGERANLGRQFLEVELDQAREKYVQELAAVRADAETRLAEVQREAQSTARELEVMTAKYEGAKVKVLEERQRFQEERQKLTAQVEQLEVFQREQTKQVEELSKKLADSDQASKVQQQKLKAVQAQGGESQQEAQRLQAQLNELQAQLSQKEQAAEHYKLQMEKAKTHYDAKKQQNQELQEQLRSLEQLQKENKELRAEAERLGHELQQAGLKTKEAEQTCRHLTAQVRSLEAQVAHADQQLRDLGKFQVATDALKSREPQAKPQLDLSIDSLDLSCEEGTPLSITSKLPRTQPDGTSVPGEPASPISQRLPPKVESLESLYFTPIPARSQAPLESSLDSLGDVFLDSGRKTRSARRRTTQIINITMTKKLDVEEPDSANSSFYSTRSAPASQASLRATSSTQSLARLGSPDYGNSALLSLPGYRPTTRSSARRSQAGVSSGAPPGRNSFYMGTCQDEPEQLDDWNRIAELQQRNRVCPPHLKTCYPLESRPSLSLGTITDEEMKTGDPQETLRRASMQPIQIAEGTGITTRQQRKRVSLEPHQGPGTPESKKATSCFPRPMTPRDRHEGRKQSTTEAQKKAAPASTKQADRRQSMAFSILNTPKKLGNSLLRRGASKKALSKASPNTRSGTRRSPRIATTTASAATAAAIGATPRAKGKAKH
UniProt O60264: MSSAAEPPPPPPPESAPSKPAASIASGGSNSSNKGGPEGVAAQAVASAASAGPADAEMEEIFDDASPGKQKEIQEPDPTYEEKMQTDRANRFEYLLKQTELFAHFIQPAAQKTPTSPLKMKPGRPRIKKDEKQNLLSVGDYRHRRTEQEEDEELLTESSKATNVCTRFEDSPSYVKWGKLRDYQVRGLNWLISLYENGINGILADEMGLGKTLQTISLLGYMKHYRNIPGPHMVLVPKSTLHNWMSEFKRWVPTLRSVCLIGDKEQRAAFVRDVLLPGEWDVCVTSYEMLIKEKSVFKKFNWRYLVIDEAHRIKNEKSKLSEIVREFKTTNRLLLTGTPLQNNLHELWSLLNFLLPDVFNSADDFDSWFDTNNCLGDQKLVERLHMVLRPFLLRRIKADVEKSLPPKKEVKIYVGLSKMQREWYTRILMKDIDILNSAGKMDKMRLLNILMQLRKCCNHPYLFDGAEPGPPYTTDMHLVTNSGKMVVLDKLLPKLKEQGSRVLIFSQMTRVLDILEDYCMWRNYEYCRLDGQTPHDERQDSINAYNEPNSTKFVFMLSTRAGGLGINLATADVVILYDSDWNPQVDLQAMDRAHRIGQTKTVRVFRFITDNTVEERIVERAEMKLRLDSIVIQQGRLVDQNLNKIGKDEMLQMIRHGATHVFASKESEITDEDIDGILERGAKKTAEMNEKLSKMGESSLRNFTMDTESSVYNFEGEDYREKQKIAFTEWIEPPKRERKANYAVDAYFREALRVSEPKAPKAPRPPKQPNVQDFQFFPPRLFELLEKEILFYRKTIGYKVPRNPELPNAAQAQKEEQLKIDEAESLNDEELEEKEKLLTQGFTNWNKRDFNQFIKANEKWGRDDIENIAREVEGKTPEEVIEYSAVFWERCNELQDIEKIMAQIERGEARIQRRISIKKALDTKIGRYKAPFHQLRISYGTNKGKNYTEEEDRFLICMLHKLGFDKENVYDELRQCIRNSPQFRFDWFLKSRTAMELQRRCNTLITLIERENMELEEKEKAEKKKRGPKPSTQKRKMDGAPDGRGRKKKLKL
UniProt Q9NWH9: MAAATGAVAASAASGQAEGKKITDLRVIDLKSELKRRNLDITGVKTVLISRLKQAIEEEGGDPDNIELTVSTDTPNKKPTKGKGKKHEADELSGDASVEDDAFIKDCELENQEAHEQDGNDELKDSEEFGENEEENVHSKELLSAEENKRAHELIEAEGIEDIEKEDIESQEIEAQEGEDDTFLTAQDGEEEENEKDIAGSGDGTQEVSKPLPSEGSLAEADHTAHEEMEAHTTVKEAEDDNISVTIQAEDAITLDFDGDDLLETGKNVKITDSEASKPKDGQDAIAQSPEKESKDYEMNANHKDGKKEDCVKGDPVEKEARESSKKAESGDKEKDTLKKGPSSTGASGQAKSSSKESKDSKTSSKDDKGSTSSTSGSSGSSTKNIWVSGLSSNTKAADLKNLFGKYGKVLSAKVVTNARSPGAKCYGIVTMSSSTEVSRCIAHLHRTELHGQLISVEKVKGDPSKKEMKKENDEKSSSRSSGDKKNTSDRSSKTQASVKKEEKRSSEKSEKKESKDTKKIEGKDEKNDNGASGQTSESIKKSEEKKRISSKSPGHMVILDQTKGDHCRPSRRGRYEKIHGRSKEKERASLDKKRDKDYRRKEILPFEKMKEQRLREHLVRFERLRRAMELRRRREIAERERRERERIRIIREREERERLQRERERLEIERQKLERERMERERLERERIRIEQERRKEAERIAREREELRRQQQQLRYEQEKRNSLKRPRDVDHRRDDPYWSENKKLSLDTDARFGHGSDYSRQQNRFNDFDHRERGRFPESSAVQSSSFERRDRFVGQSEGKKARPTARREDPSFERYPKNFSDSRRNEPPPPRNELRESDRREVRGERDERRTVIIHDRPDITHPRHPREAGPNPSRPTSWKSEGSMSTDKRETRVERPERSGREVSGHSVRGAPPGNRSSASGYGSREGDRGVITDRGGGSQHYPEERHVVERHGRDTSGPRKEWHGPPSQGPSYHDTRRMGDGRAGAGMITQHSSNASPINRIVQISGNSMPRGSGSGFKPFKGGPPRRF

How the values were obtained:
[1] = molecular target: T1, GST-C179WT (Human CIZ1) (human) (UniProt Q9ULV3); test: affinity purification with mass spectrometry; GST-CIZ1 fragment on Glutathione Sepharose 4B beads (prepared with Benzonase and RNase); HeLa nuclear extract (400 and 800 mM NaCl fractions pooled, diluted to 135 mM NaCl), 2 h at 4°C, five washes in isotonic buffer; on-bead trypsin digest, label-free MS; partner: >=2-fold over GST control, q <= 0.05; studies A, B (with C179Δtail) and C (with C179DDD), n = 4 replicates each; only the target purified
T1 sequence: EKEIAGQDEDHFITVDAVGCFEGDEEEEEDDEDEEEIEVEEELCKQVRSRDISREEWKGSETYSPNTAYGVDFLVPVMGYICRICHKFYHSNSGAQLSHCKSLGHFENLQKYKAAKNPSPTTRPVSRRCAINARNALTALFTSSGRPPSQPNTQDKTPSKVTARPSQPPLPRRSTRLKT

[2] = molecular target: GST-C179Δtail (Human CIZ1) (human) (UniProt Q9ULV3); test: as above

Molecule: NUMA1 (from UniProt Q14980 1-2115)
binding [1]: binds
binding [2]: binds

binding [1]: binds
Molecule: HNRNPK (from UniProt P61978 1-463)

Molecule: SMARCA5 (from UniProt O60264 1-1052)
binding [1]: binds
binding [2]: binds

Molecule: SLTM (SAFB-like transcription modulator) (from UniProt Q9NWH9 1-1034)
binding [1]: binds
binding [2]: binds

B1: RRP1B (protein, UniProt Q14684 1-758)
chain: MAPAMQPAEIQFAQRLASSEKGIRDRAVKKLRQYISVKTQRETGGFSQEELLKIWKGLFYCMWVQDEPLLQEELANTIAQLVHAVNNSAAQHLFIQTFWQTMNREWKGIDRLRLDKYYMLIRLVLRQSFEVLKRNGWEESRIKVFLDVLMKEVLCPESQSPNGVRFHFIDIYLDELSKVGGKELLADQNLKFIDPFCKIAAKTKDHTLVQTIARGVFEAIVDQSPFVPEETMEEQKTKVGDGDLSAEEIPENEVSLRRAVSKKKTALGKNHSRKDGLSDERGRDDCGTFEDTGPLLQFDYKAVADRLLEMTSRKNTPHFNRKRLSKLIKKFQDLSEGSSISQLSFAEDISADEDDQILSQGKHKKKGNKLLEKTNLEKEKGSRVFCVEEEDSESSLQKRRRKKKKKHHLQPENPGPGGAAPSLEQNRGREPEASGLKALKARVAEPGAEATSSTGEESGSEHPPAVPMHNKRKRPRKKSPRAHREMLESAVLPPEDMSQSGPSGSHPQGPRGSPTGGAQLLKRKRKLGVVPVNGSGLSTPAWPPLQQEGPPTGPAEGANSHTTLPQRRRLQKKKAGPGSLELCGLPSQKTASLKKRKKMRVMSNLVEHNGVLESEAGQPQALGSSGTCSSLKKQKLRAESDFVKFDTPFLPKPLFFRRAKSSTATHPPGPAVQLNKTPSSSKKVTFGLNRNMTAEFKKTDKSILVSPTGPSRVAFDPEQKPLHGVLKTPTSSPASSPLVAKKPLTTTPRRRPRAMDFF
binding [1]: binds
binding [2]: binds

binding [1]: binds
binding [2]: binds
B2: DDX24 (protein, UniProt Q9GZR7 1-859)
chain: MKLKDTKSRPKQSSCGKFQTKGIKVVGKWKEVKIDPNMFADGQMDDLVCFEELTDYQLVSPAKNPSSLFSKEAPKRKAQAVSEEEEEEEGKSSSPKKKIKLKKSKNVATEGTSTQKEFEVKDPELEAQGDDMVCDDPEAGEMTSENLVQTAPKKKKNKGKKGLEPSQSTAAKVPKKAKTWIPEVHDQKADVSAWKDLFVPRPVLRALSFLGFSAPTPIQALTLAPAIRDKLDILGAAETGSGKTLAFAIPMIHAVLQWQKRNAAPPPSNTEAPPGETRTEAGAETRSPGKAEAESDALPDDTVIESEALPSDIAAEARAKTGGTVSDQALLFGDDDAGEGPSSLIREKPVPKQNENEEENLDKEQTGNLKQELDDKSATCKAYPKRPLLGLVLTPTRELAVQVKQHIDAVARFTGIKTAILVGGMSTQKQQRMLNRRPEIVVATPGRLWELIKEKHYHLRNLRQLRCLVVDEADRMVEKGHFAELSQLLEMLNDSQYNPKRQTLVFSATLTLVHQAPARILHKKHTKKMDKTAKLDLLMQKIGMRGKPKVIDLTRNEATVETLTETKIHCETDEKDFYLYYFLMQYPGRSLVFANSISCIKRLSGLLKVLDIMPLTLHACMHQKQRLRNLEQFARLEDCVLLATDVAARGLDIPKVQHVIHYQVPRTSEIYVHRSGRTARATNEGLSLMLIGPEDVINFKKIYKTLKKDEDIPLFPVQTKYMDVVKERIRLARQIEKSEYRNFQACLHNSWIEQAAAALEIELEEDMYKGGKADQQEERRRQKQMKVLKKELRHLLSQPLFTESQKTKYPTQSGKPPLLVSAPSKSESALSCLSKQKKKKTKKPKEPQPEQPQPSTSAN

binding [1]: binds
B3: matrin-3 (protein, UniProt P43243 1-847)
chain: MSKSFQQSSLSRDSQGHGRDLSAAGIGLLAAATQSLSMPASLGRMNQGTARLASLMNLGMSSSLNQQGAHSALSSASTSSHNLQSIFNIGSRGPLPLSSQHRGDADQASNILASFGLSARDLDELSRYPEDKITPENLPQILLQLKRRRTEEGPTLSYGRDGRSATREPPYRVPRDDWEEKRHFRRDSFDDRGPSLNPVLDYDHGSRSQESGYYDRMDYEDDRLRDGERCRDDSFFGETSHNYHKFDSEYERMGRGPGPLQERSLFEKKRGAPPSSNIEDFHGLLPKGYPHLCSICDLPVHSNKEWSQHINGASHSRRCQLLLEIYPEWNPDNDTGHTMGDPFMLQQSTNPAPGILGPPPPSFHLGGPAVGPRGNLGAGNGNLQGPRHMQKGRVETSRVVHIMDFQRGKNLRYQLLQLVEPFGVISNHLILNKINEAFIEMATTEDAQAAVDYYTTTPALVFGKPVRVHLSQKYKRIKKPEGKPDQKFDQKQELGRVIHLSNLPHSGYSDSAVLKLAEPYGKIKNYILMRMKSQAFIEMETREDAMAMVDHCLKKALWFQGRCVKVDLSEKYKKLVLRIPNRGIDLLKKDKSRKRSYSPDGKESPSDKKSKTDGSQKTESSTEGKEQEEKSGEDGEKDTKDDQTEQEPNMLLESEDELLVDEEEAAALLESGSSVGDETDLANLGDVASDGKKEPSDKAVKKDGSASAAAKKKLKKVDKIEELDQENEAALENGIKNEENTEPGAESSENADDPNKDTSENADGQSDENKDDYTIPDEYRIGPYQPNVPVGIDYVIPKTGFYCKLCSLFYTNEEVAKNTHCSSLPHYQKLKKFLNKLAEERRQKKET

B4: SRSF2 (protein, UniProt Q01130 1-221)
chain: MSYGRPPPDVEGMTSLKVDNLTYRTSPDTLRRVFEKYGRVGDVYIPRDRYTKESRGFAFVRFHDKRDAEDAMDAMDGAVLDGRELRVQMARYGRPPDSHHSRRGPPPRRYGGGGYGRRSRSPRRRRRSRSRSRSRSRSRSRSRYSRSKSRSRTRSRSRSTSKSRSARRSKSKSSSVSRSRSRSRSRSRSRSPPPVSKRESKSRSRSKSPPKSPEEEGAVSS
binding [1]: binds
binding [2]: binds

B5: BAZ1B (protein, UniProt Q9UIG0 1-1483)
chain: MAPLLGRKPFPLVKPLPGEEPLFTIPHTQEAFRTREEYEARLERYSERIWTCKSTGSSQLTHKEAWEEEQEVAELLKEEFPAWYEKLVLEMVHHNTASLEKLVDTAWLEIMTKYAVGEECDFEVGKEKMLKVKIVKIHPLEKVDEEATEKKSDGACDSPSSDKENSSQIAQDHQKKETVVKEDEGRRESINDRARRSPRKLPTSLKKGERKWAPPKFLPHKYDVKLQNEDKIISNVPADSLIRTERPPNKEIVRYFIRHNALRAGTGENAPWVVEDELVKKYSLPSKFSDFLLDPYKYMTLNPSTKRKNTGSPDRKPSKKSKTDNSSLSSPLNPKLWCHVHLKKSLSGSPLKVKNSKNSKSPEEHLEEMMKMMSPNKLHTNFHIPKKGPPAKKPGKHSDKPLKAKGRSKGILNGQKSTGNSKSPKKGLKTPKTKMKQMTLLDMAKGTQKMTRAPRNSGGTPRTSSKPHKHLPPAALHLIAYYKENKDREDKRSALSCVISKTARLLSSEDRARLPEELRSLVQKRYELLEHKKRWASMSEEQRKEYLKKKREELKKKLKEKAKERREKEMLERLEKQKRYEDQELTGKNLPAFRLVDTPEGLPNTLFGDVAMVVEFLSCYSGLLLPDAQYPITAVSLMEALSADKGGFLYLNRVLVILLQTLLQDEIAEDYGELGMKLSEIPLTLHSVSELVRLCLRRSDVQEESEGSDTDDNKDSAAFEDNEVQDEFLEKLETSEFFELTSEEKLQILTALCHRILMTYSVQDHMETRQQMSAELWKERLAVLKEENDKKRAEKQKRKEMEAKNKENGKVENGLGKTDRKKEIVKFEPQVDTEAEDMISAVKSRRLLAIQAKKEREIQEREMKVKLERQAEEERIRKHKAAAEKAFQEGIAKAKLVMRRTPIGTDRNHNRYWLFSDEVPGLFIEKGWVHDSIDYRFNHHCKDHTVSGDEDYCPRSKKANLGKNASMNTQHGTATEVAVETTTPKQGQNLWFLCDSQKELDELLNCLHPQGIRESQLKERLEKRYQDIIHSIHLARKPNLGLKSCDGNQELLNFLRSDLIEVATRLQKGGLGYVEETSEFEARVISLEKLKDFGECVIALQASVIKKFLQGFMAPKQKRRKLQSEDSAKTEEVDEEKKMVEEAKVASALEKWKTAIREAQTFSRMHVLLGMLDACIKWDMSAENARCKVCRKKGEDDKLILCDECNKAFHLFCLRPALYEVPDGEWQCPACQPATARRNSRGRNYTEESASEDSEDDESDEEEEEEEEEEEEEDYEVAGLRLRPRKTIRGKHSVIPPAARSGRRPGKKPHSTRRSQPKAPPVDDAEVDELVLQTKRSSRRQSLELQKCEEILHKIVKYRFSWPFREPVTRDEAEDYYDVITHPMDFQTVQNKCSCGSYRSVQEFLTDMKQVFTNAEVYNCRGSHVLSCMVKTEQCLVALLHKHLPGHPYVRRKRKKFPDRLAEDEGDSEPEAVGQSRGRRQKK
binding [1]: binds
binding [2]: binds

binding [1]: binds
binding [2]: binds
B6: CCDC86 (protein, UniProt Q9H6F5 1-360)
chain: MDTPLRRSRRLGGLRPESPESLTSVSRTRRALVEFESNPEETREPGSPPSVQRAGLGSPERPPKTSPGSPRLQQGAGLESPQGQPEPGAASPQRQQDLHLESPQRQPEYSPESPRCQPKPSEEAPKCSQDQGVLASELAQNKEELTPGAPQHQLPPVPGSPEPYPGQQAPGPEPSQPLLELTPRAPGSPRGQHEPSKPPPAGETVTGGFGAKKRKGSSSQAPASKKLNKEELPVIPKGKPKSGRVWKDRSKKRFSQMLQDKPLRTSWQRKMKERQERKLAKDFARHLEEEKERRRQEKKQRRAENLKRRLENERKAEVVQVIRNPAKLKRAKKKQLRSIEKRDTLALLQKQPPQQPAAKI

B7: GNL3 (protein, UniProt Q9BVP2 1-549)
chain: MKRPKLKKASKRMTCHKRYKIQKKVREHHRKLRKEAKKRGHKKPRKDPGVPNSAPFKEALLREAELRKQRLEELKQQQKLDRQKELEKKRKLETNPDIKPSNVEPMEKEFGLCKTENKAKSGKQNSKKLYCQELKKVIEASDVVLEVLDARDPLGCRCPQVEEAIVQSGQKKLVLILNKSDLVPKENLESWLNYLKKELPTVVFRASTKPKDKGKITKRVKAKKNAAPFRSEVCFGKEGLWKLLGGFQETCSKAIRVGVIGFPNVGKSSIINSLKQEQMCNVGVSMGLTRSMQVVPLDKQITIIDSPSFIVSPLNSSSALALRSPASIEVVKPMEAASAILSQADARQVVLKYTVPGYRNSLEFFTVLAQRRGMHQKGGIPNVEGAAKLLWSEWTGASLAYYCHPPTSWTPPPYFNESIVVDMKSGFNLEELEKNNAQSIRAIKGPHLANSILFQSSGLTNGIIEEKDIHEELPKRKERKQEEREDDKDSDQETVDEEVDENSSGMFAAEETGEALSEETTAGEQSTRSFILDKIIEEDDAYDFSTDYV
binding [1]: binds
binding [2]: binds
